# From PubChem BioAssay (EPA / NIEHS)
# Chains of the proteins cited; added tags and fusions are not shown. Lines headed by an entry give the natural chain unless they say otherwise; changes in a name come on top.
# UniProt P07948: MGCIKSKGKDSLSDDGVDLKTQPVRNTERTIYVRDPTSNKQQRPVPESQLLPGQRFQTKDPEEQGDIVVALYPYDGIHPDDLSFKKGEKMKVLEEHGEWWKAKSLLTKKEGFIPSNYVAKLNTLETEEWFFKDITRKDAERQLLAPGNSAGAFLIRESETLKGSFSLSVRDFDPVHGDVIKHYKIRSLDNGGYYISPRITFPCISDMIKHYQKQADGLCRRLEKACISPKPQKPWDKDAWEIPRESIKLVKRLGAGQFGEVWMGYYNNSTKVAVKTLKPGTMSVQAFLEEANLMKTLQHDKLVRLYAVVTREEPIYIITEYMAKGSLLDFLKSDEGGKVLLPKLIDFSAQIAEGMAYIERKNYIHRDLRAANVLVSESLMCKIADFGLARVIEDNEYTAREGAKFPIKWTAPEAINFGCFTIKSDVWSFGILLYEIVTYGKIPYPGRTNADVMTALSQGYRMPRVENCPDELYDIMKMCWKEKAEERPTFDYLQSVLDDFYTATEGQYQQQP
# UniProt P28223, whole entry, looked up: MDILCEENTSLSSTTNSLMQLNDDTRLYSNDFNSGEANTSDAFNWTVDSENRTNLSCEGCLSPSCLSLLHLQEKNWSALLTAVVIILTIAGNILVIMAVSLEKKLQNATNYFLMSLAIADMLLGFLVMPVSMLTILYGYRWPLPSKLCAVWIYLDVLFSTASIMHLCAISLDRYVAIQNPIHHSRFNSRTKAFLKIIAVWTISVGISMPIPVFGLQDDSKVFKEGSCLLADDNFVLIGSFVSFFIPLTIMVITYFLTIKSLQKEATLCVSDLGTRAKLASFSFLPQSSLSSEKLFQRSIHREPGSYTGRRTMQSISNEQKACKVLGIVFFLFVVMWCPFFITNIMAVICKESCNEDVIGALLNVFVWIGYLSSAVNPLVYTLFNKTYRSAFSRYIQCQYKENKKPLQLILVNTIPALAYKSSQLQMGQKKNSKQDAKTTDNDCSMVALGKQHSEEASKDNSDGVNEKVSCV
# UniProt P10827: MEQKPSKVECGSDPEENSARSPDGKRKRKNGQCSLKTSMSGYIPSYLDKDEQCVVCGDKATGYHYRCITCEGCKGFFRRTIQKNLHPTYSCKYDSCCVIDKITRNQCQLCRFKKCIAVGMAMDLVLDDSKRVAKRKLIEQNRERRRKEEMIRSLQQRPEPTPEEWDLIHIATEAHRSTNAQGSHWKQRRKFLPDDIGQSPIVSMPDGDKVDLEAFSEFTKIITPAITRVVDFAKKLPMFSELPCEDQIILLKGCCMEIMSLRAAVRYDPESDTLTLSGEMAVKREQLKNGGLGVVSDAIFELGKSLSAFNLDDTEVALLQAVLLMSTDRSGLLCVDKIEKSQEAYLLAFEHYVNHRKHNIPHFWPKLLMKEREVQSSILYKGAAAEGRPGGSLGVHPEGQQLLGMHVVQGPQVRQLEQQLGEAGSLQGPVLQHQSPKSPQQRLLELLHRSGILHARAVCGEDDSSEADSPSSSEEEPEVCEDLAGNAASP
# UniProt P31645, whole entry, looked up: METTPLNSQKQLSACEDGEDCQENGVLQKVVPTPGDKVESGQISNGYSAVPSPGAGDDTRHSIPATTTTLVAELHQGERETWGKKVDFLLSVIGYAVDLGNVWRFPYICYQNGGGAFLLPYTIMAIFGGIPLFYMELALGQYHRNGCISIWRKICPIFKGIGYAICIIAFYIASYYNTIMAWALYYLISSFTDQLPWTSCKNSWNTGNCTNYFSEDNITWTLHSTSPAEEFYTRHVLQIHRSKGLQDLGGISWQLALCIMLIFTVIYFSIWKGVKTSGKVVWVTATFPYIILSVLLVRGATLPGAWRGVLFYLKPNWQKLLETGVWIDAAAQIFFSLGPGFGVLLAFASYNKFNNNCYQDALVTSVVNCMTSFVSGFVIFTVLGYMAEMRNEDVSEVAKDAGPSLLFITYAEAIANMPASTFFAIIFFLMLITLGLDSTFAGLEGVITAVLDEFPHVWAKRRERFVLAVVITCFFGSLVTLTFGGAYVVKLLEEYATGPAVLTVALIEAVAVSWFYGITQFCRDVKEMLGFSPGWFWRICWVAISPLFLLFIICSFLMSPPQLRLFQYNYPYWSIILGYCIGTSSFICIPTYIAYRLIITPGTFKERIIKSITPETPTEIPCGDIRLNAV
# UniProt P50406, whole entry, looked up: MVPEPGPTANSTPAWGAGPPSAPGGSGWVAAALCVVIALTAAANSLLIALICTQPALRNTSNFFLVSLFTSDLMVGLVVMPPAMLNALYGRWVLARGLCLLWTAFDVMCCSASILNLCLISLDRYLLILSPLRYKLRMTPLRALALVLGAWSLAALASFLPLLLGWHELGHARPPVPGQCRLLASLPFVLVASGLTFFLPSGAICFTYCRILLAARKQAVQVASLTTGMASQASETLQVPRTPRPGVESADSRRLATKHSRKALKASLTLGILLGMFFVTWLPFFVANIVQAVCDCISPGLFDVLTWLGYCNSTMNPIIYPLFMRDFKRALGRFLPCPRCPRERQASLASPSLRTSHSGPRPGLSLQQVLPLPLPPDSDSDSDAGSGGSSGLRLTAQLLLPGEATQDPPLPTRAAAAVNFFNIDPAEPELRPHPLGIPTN
# UniProt P11362, whole entry, looked up: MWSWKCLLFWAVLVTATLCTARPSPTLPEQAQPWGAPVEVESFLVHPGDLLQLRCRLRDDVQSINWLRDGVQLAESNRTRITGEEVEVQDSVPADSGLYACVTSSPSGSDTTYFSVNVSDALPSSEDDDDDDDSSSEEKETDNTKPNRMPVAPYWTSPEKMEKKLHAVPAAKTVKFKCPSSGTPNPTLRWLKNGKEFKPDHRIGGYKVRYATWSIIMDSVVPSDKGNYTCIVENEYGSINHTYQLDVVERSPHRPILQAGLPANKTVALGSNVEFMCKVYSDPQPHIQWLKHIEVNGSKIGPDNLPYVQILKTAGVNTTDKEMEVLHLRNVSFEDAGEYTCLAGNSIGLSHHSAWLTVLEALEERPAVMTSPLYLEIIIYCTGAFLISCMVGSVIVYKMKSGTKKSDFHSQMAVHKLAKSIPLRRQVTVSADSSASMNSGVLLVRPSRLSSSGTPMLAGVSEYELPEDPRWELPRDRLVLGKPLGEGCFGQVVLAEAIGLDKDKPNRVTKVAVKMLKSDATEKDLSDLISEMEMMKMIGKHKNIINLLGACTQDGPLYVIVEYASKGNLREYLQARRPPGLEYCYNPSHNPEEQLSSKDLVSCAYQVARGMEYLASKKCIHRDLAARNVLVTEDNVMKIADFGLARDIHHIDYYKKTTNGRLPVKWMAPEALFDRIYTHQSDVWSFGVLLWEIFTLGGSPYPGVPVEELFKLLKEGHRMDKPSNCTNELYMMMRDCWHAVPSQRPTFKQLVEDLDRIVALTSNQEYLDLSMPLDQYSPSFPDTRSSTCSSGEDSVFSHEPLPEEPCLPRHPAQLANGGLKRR
# UniProt Q12809: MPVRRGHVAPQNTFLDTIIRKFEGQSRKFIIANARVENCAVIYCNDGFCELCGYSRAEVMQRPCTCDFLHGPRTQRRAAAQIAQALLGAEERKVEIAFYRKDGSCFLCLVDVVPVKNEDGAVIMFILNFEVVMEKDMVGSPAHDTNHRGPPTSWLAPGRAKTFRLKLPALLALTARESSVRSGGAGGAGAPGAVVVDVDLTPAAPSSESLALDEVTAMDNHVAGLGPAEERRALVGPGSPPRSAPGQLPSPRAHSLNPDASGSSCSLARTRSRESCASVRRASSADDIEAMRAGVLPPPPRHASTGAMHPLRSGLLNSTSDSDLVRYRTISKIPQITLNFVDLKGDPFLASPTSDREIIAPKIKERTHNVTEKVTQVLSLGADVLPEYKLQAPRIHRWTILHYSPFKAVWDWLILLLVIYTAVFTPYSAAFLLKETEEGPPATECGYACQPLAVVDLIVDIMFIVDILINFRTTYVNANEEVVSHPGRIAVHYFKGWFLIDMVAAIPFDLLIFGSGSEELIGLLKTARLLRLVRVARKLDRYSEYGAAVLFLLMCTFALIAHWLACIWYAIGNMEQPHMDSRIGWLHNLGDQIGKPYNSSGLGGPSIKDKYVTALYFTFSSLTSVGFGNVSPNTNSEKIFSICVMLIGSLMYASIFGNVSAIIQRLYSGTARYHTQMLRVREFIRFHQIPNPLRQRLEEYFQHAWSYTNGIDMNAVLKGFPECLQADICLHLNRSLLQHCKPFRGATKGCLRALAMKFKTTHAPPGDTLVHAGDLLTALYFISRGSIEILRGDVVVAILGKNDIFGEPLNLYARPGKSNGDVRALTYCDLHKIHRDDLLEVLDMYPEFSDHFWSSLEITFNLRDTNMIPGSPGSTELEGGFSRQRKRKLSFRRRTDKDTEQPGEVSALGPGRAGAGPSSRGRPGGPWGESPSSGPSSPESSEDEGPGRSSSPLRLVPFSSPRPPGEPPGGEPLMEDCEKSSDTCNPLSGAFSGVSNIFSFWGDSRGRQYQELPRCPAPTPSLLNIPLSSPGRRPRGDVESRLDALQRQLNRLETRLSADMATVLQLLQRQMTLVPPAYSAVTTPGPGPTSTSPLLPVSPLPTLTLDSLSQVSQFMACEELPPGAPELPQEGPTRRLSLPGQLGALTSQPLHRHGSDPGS
# Inconclusive means that the source gave no clear call. Such entries were picked first, then a sample of the others. For some of these results: Where the call is inconclusive, the potency comes from a doubtful curve fit. Active and inactive are the calls of the source. The calls were made as follows, unless noted: active = hit-call score of the fitted dose curve at least 0.9, where 1 is the maximum; inconclusive = response in the unintended direction; inactive = score below 0.9.
# Columns and labels:
# [1] = VALA_MIGHUV2_Bcatenin: VALA Sciences human Umbilical Vein Endothelial Cell Migration (MIGHUV) Assay, Nuclear Translocation of beta-Catenin after Recovery (AID 2284315)
# Procedure, shortened: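 Nuclear beta-catenin imaged by immunofluorescence with Hoechst counterstain in fixed HUVEC, 24 h after scratch wounding and chemical addition. Six-point concentration-response in triplicate; activity scored as signal increase over 0.1% DMSO vehicle.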
# [2] = VALA_TUBHUV_Antagonist_TubuleLength: VALA Sciences human Umbilical Vein Endothelial Tubule Formation (TUBHUV) Antagonism Assay (AID 2284325)
# Procedure, shortened: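 Tubule length was imaged via CD31 immunofluorescence after a further 3-day compound exposure in 10 ng/ml VEGF, following 3-day pre-culture of HUVEC with HDF at 1:3. Vehicle 0.1% DMSO; suramin (100 uM) inhibition control.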
# [3] = VALA_MIGHUV1_ScratchOnly_CellCount: Viability Assessment in the VALA Sciences human Umbilical Vein Endothelial Cell Migration (MIGHUV) Assay, Scratch Wound Inhibited Recovery (AID 2284327)
# Procedure, shortened: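 Hoechst-stained nuclei in the scratch wound were counted by high-content imaging after a 24 h recovery period. Scratched HUVEC monolayers received 6-point concentration series, triplicate, in 0.1% DMSO, fit against DMSO.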
# [4] = IUF_NPC1_cytotoxicity_72hr: Cytotoxicity Assessment at 72 hours in the Leibniz Research Institute for Environmental Medicine (IUF) Neural Progenitor Cell Proliferation Assay (NPC1) (AID 2284332);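 also: rising LDH signal means more cytotoxicity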
# Procedure, shortened: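 Readout is fluorescence from LDH-dependent resazurin conversion, sampled from culture medium after compound contact lasting 72 h. Each well holds one 0.25-0.35 mm human progenitor sphere kept at 37C, 5% CO2 with EGF and FGF.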
# [5] = VALA_TUBIPS_Antagonist_CellCount: Viability Assessment in the VALA Sciences human iPS-derived Endothelial Tubule Formation (TUBIPS) Antagonism Assay (AID 2284335)
# [6] = read-out: xenobiotic metabolism (CYP2C9), CYP2C9 (gene 1559); assay: CLD_CYP2C9_48hr: CellzDirect (CLD) Gene Expression Assay for xenobiotic metabolism (CYP1A2) at 48 hours (AID 2283701; active = hit-call score of the fitted dose curve at least 0.9, where 1 is the maximum; inactive = score below 0.9)
# Procedure, shortened: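 mRNA level measured by quantitative nuclease protection (S1 digestion, chemiluminescent detection) in lysates of human primary hepatocytes exposed 48 h with daily re-dosing. Induction fitted positively versus 0.2% DMSO; morphology-based cytotoxicity flagged yes/no.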
# [7] = biological target: human LYN Proto-Oncogene, Src family Tyrosine Kinase (LynA), LYN (gene 4067) (UniProt P07948); assay: NVS_ENZ_hLynA: NovaScreen (NVS) Enzymatic Assay for human LYN Proto-Oncogene, Src family Tyrosine Kinase (LynA) (AID 2283173)
# Procedure, shortened: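 Recombinant kinase with fluorescent substrate; product separated from substrate by electrophoretic mobility shift and read 1 h after dosing. Duplicate screen at 25 uM, then concentration-response up to 50 uM; activity scored as signal loss against DMSO.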
# [8] = biological target: Beta-2 adrenergic receptor (Homo sapiens) (UniProt P07550); assay: NVS_GPCR_hAdrb2: NovaScreen (NVS) G Protein-Coupled Receptor Assay for human Adrenergic, Beta 2 Receptor (Adrb2) (AID 2283261)
# Procedure, shortened: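 Compounds screened in duplicate at 25 uM, then actives in concentration series. Human beta-2 receptor from CHO material, cell-free; radioligand displacement after 1 h measured by filtration and scintillation against DMSO baseline.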
# [9] = ArunA_CellTiter_hNC: Viability Assessment in the ArunA Biomedical's Oris Neural Crest (hNC) Cell Migration Assay (AID 2283752)
# Procedure, shortened: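 Cytotoxicity endpoint run alongside the migration assay: neural crest cells on Matrigel, 60,000 per well, preincubated 16 h at 37C, treated 72 h; CellTiter Aqueous One signal loss relative to DMSO.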
# [10] = ArunA_NOG_NeuritesPerNeuron: ArunA Biomedical's Neurite Outgrowth (NOG) Assay for Neurites Per Neuron (AID 2283758)
# Procedure, shortened: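 Differentiated human H9-derived neurons exposed to chemicals for 48 h from seeding, then stained with Hoechst and βIII-tubulin/DyLight 488. Automated imaging counted neurites (processes >10 um) per valid neuron; loss of signal versus DMSO scored.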
# [11] = ArunA_NOG_BranchPointsPerNeurite: ArunA Biomedical's Neurite Outgrowth (NOG) Assay for Branch Points Per Neurite (AID 2283759)
# Procedure, shortened: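 Automated image analysis traced neurites (processes >10 um) from valid cell bodies after Hoechst and βIII-tubulin staining. hNN cells from H9 embryonic stem cells, 48 h exposure. Fitted bidirectionally against DMSO.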
# [12] = read-out: glucuronosyltransferase (UGT1A1), UGT1A1 (gene 54658); assay: CLD_UGT1A1_24hr: CellzDirect (CLD) Gene Expression Assay for glucuronosyltransferase (UGT1A1) at 24 hours (AID 2283696)
# Procedure, shortened: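 UGT1A1 transcript induction was measured by quantitative nuclease protection assay (chemiluminescence) in human hepatocyte cultures 24 h after daily fresh dosing, with 0.2% DMSO as vehicle and baseline.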
# [13] = biological target: human Serotonin, 5-Hydroxytryptamine Receptor 2A (5HT2A), HTR2A (gene 3356) (UniProt P28223); assay: NVS_GPCR_h5HT2A: NovaScreen (NVS) G Protein-Coupled Receptor Assay for human Serotonin, 5-Hydroxytryptamine Receptor 2A (5HT2A) (AID 2283249)
# Procedure, shortened: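 Radioligand displacement on human cortex tissue extract, counted by filtration and scintillation 1.5 h post-dosing. Initial single-concentration screen at 25 uM in duplicate, concentration series in follow-up; DMSO as baseline.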
# NCBI gene 100848466 = assay: NVS_NR_bPR: NovaScreen (NVS) Nuclear Receptor Binding Assay for bovine Progextron Receptor (PR) (AID 2283343);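 as to AC50: actives lower bound radioligand signal below DMSO meaning displacement of the label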
# Procedure, shortened: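 Competitive radioligand binding with membranes from bovine uterus, scintillation read-out at 18 h post-dose. Compounds first tested in duplicate at 25 uM, then actives in concentration series; loss-of-signal relative to DMSO.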
# [14] = biological target: human Thyroid Receptor Alpha (TRa), THRA (gene 7067) (UniProt P10827); assay: NVS_NR_hTRa_Antagonist: NovaScreen (NVS) Nuclear Receptor Binding Assay for human Thyroid Receptor Alpha Antagonism (TRa) (AID 2283362);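 also: activity is loss of signal relative to DMSO baseline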
# Procedure, shortened: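 AlphaLISA chemiluminescent immunoassay readout, taken 1 h post-dosing in a cell-free system with extracted protein. Activity was scored as signal loss against DMSO negative control, from duplicate single-concentration (25 uM) testing followed by concentration-response follow-up.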
# [15] = biological target: human Serotonin Transporter (SERT), SLC6A4 (gene 6532) (UniProt P31645); assay: NVS_TR_hSERT: NovaScreen (NVS) Transporter Assay for human Serotonin Transporter (SERT) (AID 2283372)
# Procedure, shortened: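 Human platelet membrane preparation; displacement of radioligand from serotonin transporter measured after 1 h by filtration and scintillation counting. Single 25 uM duplicate screen, then concentration series for actives, with DMSO as negative baseline.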
# [16] = biological target: human Serotonin, 5-Hydroxytryptamine Receptor 6 (5HT6), HTR6 (gene 3362) (UniProt P50406); assay: NVS_GPCR_h5HT6: NovaScreen (NVS) G Protein-Coupled Receptor Assay for human Serotonin, 5-Hydroxytryptamine Receptor 6 (5HT6) (AID 2283253)
# Procedure, shortened: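 Filter scintillation counting of radioligand displacement from HEK293-expressed 5HT6, 1 hour post-dose, with loss of signal relative to DMSO. Single 25 uM duplicates first, with concentration series for confirmation.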
# [17] = Tanguay_ZF_120hpf_OTIC_legacy: (Legacy) Oregon State University Tanguay Lab 120 Hour Post-fertilization zebrafish Assay for Otic Vesicle Malformation (AID 2283639)
# Procedure, shortened: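 Wild-type zebrafish larvae, whole-embryo exposure from early stage to 120 hpf at 28C. Binary brightfield scoring of otic vesicle morphology, fitted in the positive direction against the DMSO baseline.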
# [18] = biological target: human Fibroblast Growth Factor Receptor 1 (FGFR1), FGFR1 (gene 2260) (UniProt P11362); assay: NVS_ENZ_hFGFR1: NovaScreen (NVS) Enzymatic Assay for human Fibroblast Growth Factor Receptor 1 (FGFR1) (AID 2283159)
# Procedure, shortened: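 Cell-free recombinant kinase with fluorescent substrate, product separated by electrophoretic mobility shift; read 1 hour after dosing, loss of signal relative to DMSO. Initial screen in duplicate at 25 uM, actives followed in concentration series.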
# [19] = biological target: Voltage-gated inwardly rectifying potassium channel KCNH2 (Homo sapiens) (UniProt Q12809); assay: NVS_IC_hKhERGCh: NovaScreen (NVS) Ion Channel Assay for human Potassium Channel ERG (KhERGCh) (AID 2283333)
# Procedure, shortened: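 Membranes from CHO cells expressing human ERG; displacement of radioligand measured by filtration and scintillation after 0.75 h. Single-concentration duplicate screen at 25 uM, then concentration-response for actives; DMSO baseline.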
smiles,measurement,setting,value
O=P(OCCCl)(OCCCl)OCCCl,AC50,[1],inconclusive: 0.0031 µM
same,outcome,[2],inactive
same,AC50,[3],inconclusive: 0.00861 µM
same,outcome,[4],inactive
same,outcome,[5],inactive
O=C(O)c1c(Cl)ccc2cc(Cl)cnc12,AC50,[6],active: 0.069 µM
CC(C)[C@@H](Nc1ccc(C(F)(F)F)cc1Cl)C(=O)OC(C#N)c1cccc(Oc2ccccc2)c1 (stereo not given in full),AC50,[4],inconclusive: 9.7 µM
CN(C)C(=O)Nc1ccc(Cl)cc1,outcome,[7],inactive
same,outcome,[8],inactive
Nc1ncn[nH]1,AC50,[9],inconclusive: 9.92 µM
same,outcome,[10],inactive
same,outcome,[11],inactive
same,outcome,[1],inactive
same,AC50,[2],inconclusive: 50 µM
same,AC50,[3],inconclusive: 0.0143 µM
same,AC50,[5],inconclusive: 0.118 µM
CCCSP(=O)(OCC)Oc1ccc(Br)cc1Cl (stereo not given),AC50,[12],active: 20 µM
COP(=O)(NC(C)=O)SC (stereo not given),AC50,[13],inconclusive: 25 µM
same,AC50,NCBI gene 100848466,inconclusive: 0.289 µM
same,AC50,[14],inconclusive: 25 µM
CC(C)C1(C)N=C(c2ncccc2C(=O)O)NC1=O (stereo not given),outcome,[9],inactive
same,outcome,[10],inactive
same,AC50,[11],inconclusive: 50 µM
CCNc1nc(Cl)nc(NC(C)(C)C#N)n1,AC50,[6],active: 0.0364 µM
OCCN(CCO)CCO,outcome,[7],inactive
same,AC50,[15],inconclusive: 25 µM
Nc1ccc(Cc2ccc(N)cc2)cc1,AC50,[16],inconclusive: 0.57 µM
same,outcome,[17],inactive
ClC(Cl)(Cl)c1ccccc1,outcome,[18],inactive
same,outcome,[19],inactive
CS(=O)(=O)NC(=O)c1cc(Oc2ccc(C(F)(F)F)cc2Cl)ccc1[N+](=O)[O-],AC50,[17],inconclusive: 20.8 µM
CC(C)[C@H](C(=O)O[C@H](C#N)c1cccc(Oc2ccccc2)c1)c1ccc(Cl)cc1,outcome,NCBI gene 100848466,inactive
same,AC50,[14],inconclusive: 25 µM
CCCN(CC)CC1COC2(CCC(C(C)(C)C)CC2)O1 (stereo not given),AC50,[19],active: 5.15 µM
COP(=O)(OC)C(O)C(Cl)(Cl)Cl (stereo not given),AC50,[12],inconclusive: 20 µM
c1ccc2c(c1)oc1ccccc12,AC50,[16],inconclusive: 0.0112 µM
CC(Oc1cccc(Cl)c1)C(=O)O (stereo not given),AC50,[8],inconclusive: 25 µM
CCCN(CCC)c1c([N+](=O)[O-])cc(C(C)C)cc1[N+](=O)[O-],outcome,[15],inactive
CCCCCCOC(=O)c1ccccc1C(=O)OCCCCCC,outcome,[18],inactive
same,AC50,[13],inconclusive: 25 µM

# For reference, some entries already given:
smiles,measurement,setting,value
ClC(Cl)(Cl)c1ccccc1,outcome,[18],inactive
same,outcome,[19],inactive
